Results taken from PMC6477179.
Results are given in words; binding and its absence hold for the method and conditions named. In cells and extracts the contact can be indirect. Some results given as binding are weak or reduced against the parent protein; the word gives no strength. Tags and fused reporters may be left off the sequences shown.

Molecular target: T1, 9xmyc-Atg11 (S. cerevisiae) (UniProt Q12527)
T1 sequence: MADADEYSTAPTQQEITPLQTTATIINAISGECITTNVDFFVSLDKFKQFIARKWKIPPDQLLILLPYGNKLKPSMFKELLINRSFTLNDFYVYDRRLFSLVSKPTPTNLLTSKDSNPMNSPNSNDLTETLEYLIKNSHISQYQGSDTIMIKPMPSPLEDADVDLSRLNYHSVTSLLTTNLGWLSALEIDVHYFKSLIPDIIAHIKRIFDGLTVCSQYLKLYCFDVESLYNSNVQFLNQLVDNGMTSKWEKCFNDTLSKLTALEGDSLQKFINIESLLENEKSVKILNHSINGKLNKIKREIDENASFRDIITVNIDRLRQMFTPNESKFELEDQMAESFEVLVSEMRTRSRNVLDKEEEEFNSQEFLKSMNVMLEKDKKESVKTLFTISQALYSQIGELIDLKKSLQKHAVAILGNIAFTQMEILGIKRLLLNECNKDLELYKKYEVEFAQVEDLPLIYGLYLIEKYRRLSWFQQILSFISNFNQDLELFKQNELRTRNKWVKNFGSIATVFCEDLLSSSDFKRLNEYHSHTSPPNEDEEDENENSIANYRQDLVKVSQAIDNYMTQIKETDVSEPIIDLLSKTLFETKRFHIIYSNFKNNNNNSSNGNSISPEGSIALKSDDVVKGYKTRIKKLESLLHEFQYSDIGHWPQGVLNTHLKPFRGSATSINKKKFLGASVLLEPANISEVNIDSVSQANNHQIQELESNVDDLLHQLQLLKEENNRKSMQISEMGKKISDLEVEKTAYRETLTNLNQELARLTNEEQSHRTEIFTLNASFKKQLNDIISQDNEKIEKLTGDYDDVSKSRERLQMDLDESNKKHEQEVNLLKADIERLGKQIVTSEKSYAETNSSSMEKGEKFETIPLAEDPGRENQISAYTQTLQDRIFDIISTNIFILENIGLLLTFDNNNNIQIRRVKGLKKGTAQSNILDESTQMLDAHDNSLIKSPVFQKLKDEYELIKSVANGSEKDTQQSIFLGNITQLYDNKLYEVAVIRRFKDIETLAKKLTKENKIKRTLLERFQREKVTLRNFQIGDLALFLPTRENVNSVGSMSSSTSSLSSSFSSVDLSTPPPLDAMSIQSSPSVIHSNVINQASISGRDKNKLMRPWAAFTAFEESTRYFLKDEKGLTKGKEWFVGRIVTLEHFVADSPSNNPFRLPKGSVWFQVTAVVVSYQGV
Assay: co-IP; S. cerevisiae Atg11Δ with pRS315-9myc-Atg11 plasmids, grown in YPD; anti-myc Dynabeads 1 h at 4°C in RLB+ buffer; western blot with anti-myc and anti-Atg19

binding: binds
B1: Atg19 (endogenous, S. cerevisiae) (protein, UniProt P35193 1-415)
chain: MNNSKTNQQMNTSMGYPLTVYDECNKFQLIVPTLDANIMLWCIGQLSLLNDSNGCKHLFWQPNDKSNVRILLNNYDYGHLFKYLQCQRKCSVYIGEGTLKKYNLTISTSFDNFLDLTPSEEKESLCREDAHEDPVSPKAGSEEEISPNSTSNVVVSRECLDNFMKQLLKLEESLNKLELEQKVTNKEPNHRISGTIDIPEDRSELVNFFTELKTVKQLEDVFQRYHDYERLSQECDSKTEIASDHSKKETKIEVEPPNERSLQITMNQRDNSLYFQLFNNTNSVLAGNCKLKFTDAGDKPTTQIIDMGPHEIGIKEYKEYRYFPYALDLEAGSTIEIENQYGEVIFLGKYGSSPMINLRPPSRLSAESLQASQEPFYSFQIDTLPELDDSSIISTSISLSYDGDDNEKALTWEEL
